According to the supplement of paper PMC12823440, “Inhibitors supercharge kinase turnover through native proteolytic circuits” (Nature, 2025):
Counter-ions that a name gives are not always drawn. The list shows a part of the results. Hit calls seldom repeat between salt and free forms of one compound.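 Kinases were expressed as nanoluciferase fusions in K562 cells and luminescence was read every 4 h between 2 and 18 h as percent of control, DMSO set to 100% and a positive control to 0%. A time point counts as decreased when the signal drops significantly (2 sigma). The hit call is the authors' own, does not follow from the count of time points alone, and its rule is not shown.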

By UniProt entry, the sequences of proteins in these tests, tags left out. Where a name states a change or a piece, a line headed by the entry shows the natural chain unless it says otherwise.
UniProt P07949, whole entry, looked up: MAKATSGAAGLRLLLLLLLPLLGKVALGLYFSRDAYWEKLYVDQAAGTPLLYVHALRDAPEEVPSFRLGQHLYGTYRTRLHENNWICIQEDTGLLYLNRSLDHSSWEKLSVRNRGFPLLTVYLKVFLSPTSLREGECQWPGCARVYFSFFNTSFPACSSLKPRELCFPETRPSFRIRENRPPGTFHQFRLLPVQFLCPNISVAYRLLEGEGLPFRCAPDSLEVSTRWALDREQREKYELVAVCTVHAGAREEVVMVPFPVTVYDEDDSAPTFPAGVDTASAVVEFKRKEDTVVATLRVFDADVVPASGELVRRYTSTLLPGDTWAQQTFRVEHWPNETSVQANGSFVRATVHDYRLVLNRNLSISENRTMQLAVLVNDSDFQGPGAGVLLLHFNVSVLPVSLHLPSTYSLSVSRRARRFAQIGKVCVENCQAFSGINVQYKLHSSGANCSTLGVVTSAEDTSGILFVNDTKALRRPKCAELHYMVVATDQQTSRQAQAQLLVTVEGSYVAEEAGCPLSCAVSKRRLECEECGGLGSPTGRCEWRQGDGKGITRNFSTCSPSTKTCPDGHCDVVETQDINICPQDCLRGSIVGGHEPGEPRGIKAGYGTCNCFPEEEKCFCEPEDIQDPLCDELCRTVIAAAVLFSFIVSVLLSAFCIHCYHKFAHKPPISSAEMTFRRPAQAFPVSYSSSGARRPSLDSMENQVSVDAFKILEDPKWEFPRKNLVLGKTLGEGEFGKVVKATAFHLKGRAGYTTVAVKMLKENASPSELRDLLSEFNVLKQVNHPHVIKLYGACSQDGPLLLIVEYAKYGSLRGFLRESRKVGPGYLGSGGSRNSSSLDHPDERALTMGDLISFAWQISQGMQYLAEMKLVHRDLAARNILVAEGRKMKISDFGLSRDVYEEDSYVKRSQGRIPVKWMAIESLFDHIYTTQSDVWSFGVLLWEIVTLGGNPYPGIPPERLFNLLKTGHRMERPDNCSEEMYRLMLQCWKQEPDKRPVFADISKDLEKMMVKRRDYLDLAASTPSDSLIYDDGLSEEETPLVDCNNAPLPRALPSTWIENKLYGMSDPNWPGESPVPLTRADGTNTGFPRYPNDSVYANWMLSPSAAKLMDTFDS
UniProt Q9BRS2: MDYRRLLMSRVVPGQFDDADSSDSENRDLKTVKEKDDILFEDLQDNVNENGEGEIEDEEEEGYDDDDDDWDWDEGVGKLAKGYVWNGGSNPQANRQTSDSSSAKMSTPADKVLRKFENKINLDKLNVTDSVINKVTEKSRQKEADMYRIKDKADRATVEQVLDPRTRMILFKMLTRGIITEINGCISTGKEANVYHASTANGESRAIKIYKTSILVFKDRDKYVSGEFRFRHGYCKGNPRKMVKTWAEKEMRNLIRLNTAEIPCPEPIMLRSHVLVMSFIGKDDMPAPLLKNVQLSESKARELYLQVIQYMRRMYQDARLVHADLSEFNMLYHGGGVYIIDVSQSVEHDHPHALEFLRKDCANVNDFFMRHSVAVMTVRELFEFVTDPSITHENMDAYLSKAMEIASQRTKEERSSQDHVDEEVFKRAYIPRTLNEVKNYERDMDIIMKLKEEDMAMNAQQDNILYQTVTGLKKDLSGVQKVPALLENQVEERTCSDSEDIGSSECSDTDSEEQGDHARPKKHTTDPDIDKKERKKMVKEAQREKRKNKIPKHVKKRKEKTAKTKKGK
UniProt Q15418, whole entry: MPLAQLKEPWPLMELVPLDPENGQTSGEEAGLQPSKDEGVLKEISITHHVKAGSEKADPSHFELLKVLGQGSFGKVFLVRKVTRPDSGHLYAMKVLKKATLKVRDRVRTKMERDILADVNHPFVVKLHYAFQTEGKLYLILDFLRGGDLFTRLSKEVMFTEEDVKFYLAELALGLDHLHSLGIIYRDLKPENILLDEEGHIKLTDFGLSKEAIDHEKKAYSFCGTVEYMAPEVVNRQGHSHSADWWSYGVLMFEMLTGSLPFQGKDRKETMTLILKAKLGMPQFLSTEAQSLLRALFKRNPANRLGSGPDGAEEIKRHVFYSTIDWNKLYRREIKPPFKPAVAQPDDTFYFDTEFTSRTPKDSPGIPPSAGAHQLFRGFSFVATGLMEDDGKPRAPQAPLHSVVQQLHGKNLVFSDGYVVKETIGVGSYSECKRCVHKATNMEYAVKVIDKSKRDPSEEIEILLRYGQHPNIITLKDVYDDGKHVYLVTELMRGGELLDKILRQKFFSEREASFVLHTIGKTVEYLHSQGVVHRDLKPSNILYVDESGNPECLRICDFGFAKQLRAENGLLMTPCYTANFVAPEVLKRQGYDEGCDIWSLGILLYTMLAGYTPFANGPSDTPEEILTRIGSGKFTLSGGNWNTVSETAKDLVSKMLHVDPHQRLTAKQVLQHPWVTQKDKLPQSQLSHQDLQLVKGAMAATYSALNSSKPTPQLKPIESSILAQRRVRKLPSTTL
UniProt Q15208: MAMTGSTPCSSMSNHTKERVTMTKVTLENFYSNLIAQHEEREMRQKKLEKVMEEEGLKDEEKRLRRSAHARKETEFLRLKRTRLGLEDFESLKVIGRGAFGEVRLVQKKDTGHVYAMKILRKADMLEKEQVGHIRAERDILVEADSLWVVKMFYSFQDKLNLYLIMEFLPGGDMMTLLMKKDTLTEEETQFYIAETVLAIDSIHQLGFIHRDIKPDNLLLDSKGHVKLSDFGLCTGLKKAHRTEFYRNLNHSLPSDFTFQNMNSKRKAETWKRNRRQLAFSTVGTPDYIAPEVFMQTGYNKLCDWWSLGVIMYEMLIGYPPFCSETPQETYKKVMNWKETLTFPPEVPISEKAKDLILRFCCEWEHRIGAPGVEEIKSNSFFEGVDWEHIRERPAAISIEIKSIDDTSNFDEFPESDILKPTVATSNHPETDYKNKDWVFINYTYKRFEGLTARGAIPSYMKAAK
UniProt P42680: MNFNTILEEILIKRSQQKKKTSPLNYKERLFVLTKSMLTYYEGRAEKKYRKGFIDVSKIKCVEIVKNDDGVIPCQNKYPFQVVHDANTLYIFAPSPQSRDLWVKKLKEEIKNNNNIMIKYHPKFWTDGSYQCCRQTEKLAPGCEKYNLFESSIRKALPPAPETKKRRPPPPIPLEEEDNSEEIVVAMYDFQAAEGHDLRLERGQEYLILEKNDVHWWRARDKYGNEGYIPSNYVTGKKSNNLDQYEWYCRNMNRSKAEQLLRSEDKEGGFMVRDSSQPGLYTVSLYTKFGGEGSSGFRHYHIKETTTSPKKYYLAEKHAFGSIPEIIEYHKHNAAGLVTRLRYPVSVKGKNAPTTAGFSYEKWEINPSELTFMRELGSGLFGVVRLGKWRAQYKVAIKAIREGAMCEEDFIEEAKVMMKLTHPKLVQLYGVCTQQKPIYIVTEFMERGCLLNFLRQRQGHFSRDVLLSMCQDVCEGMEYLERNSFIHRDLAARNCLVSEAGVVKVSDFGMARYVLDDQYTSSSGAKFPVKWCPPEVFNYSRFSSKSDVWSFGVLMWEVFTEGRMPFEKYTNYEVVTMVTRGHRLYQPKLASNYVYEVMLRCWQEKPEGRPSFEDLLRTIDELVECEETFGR
UniProt P29597: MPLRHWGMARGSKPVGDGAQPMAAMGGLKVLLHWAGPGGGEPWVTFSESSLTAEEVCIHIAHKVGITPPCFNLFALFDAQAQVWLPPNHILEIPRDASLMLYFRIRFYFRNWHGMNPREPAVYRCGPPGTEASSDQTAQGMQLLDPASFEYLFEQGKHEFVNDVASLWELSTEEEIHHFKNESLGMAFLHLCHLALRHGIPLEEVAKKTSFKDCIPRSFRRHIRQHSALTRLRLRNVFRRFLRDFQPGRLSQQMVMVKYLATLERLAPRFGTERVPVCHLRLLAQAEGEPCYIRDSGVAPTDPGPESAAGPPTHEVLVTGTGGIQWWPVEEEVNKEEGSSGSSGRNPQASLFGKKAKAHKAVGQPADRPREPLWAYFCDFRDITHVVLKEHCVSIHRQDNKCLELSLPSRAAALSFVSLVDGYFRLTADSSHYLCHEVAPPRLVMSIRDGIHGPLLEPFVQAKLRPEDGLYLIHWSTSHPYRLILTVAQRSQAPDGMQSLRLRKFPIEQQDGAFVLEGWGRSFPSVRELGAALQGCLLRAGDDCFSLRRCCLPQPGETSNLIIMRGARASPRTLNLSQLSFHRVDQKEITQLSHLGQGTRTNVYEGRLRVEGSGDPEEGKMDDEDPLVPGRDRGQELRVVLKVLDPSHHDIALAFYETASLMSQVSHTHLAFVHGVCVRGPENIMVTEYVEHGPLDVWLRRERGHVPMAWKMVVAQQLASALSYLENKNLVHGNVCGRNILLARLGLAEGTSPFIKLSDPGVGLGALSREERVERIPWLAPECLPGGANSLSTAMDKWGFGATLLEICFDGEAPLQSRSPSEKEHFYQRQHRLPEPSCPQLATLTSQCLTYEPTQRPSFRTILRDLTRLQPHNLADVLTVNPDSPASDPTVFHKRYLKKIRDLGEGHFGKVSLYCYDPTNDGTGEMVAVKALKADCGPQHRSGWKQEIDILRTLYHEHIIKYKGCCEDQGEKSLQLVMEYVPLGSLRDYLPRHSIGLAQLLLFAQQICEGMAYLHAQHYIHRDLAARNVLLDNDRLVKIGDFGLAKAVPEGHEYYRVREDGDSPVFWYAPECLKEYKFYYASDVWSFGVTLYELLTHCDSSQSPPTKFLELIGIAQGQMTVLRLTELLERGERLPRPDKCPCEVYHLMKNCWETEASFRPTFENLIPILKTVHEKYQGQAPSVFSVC
UniProt Q6PHR2: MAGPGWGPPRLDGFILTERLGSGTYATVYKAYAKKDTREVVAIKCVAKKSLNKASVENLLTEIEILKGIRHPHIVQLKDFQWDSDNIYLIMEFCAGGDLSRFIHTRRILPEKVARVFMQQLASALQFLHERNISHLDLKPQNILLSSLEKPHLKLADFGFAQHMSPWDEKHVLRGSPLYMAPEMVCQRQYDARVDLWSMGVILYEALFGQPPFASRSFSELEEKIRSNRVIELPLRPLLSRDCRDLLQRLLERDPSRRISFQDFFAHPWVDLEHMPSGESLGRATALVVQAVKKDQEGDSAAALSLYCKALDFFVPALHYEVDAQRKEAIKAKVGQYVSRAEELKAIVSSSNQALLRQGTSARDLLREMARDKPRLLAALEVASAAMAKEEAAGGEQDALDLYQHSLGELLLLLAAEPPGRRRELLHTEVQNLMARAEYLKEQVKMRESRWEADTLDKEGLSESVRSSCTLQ
UniProt P07947, whole entry, looked up: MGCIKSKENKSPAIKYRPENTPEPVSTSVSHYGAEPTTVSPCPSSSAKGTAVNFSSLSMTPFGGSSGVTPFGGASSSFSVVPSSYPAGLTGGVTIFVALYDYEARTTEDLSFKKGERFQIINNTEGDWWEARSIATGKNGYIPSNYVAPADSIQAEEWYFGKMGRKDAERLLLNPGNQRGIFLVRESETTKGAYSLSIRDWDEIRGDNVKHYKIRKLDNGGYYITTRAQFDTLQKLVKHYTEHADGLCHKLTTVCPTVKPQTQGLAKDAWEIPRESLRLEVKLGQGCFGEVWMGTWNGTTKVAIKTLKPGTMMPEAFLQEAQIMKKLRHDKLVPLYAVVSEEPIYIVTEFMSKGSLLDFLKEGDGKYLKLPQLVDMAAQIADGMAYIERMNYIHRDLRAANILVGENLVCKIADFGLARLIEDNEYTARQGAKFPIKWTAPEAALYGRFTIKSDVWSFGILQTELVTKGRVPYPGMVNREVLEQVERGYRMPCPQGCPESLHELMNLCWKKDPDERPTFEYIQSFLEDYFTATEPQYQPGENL
UniProt P11802: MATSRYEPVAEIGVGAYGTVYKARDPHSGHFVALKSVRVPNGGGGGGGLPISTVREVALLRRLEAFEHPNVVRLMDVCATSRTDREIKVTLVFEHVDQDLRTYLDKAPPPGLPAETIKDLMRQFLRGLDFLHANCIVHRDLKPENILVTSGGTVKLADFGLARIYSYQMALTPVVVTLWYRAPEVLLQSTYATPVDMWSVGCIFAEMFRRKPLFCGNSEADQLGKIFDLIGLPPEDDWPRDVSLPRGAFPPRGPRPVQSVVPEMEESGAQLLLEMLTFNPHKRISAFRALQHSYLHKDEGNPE
UniProt P50613: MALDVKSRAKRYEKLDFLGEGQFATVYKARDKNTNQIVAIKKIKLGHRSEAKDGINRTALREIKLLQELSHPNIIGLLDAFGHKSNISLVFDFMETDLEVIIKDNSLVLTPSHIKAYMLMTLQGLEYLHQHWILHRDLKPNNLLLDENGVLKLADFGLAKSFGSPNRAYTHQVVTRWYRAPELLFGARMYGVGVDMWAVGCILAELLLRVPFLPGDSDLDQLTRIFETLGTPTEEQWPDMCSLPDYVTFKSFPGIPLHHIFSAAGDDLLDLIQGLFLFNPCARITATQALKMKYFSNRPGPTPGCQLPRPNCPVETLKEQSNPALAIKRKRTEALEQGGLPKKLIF

Tests used:
Conditions in all cases: K562, 2-18 h
RET = RET (UniProt P07949); assay: kinase-Nluc reporter destabilization hit call (1 = scored as downregulated) (binary); higher = compound decreases kinase abundance
[1] = molecular target: RET_M918T (clone: RET_mut) (UniProt P07949); assay: as above
RIOK1 = RIOK1 (UniProt Q9BRS2); assay: as above
RIPK1 = RIPK1 (UniProt Q13546); assay: as above
RIPK2 = RIPK2 (UniProt O43353); assay: as above
ROR2 = ROR2 (UniProt Q01974); assay: as above
RPS6KA1 = RPS6KA1 (UniProt Q15418); assay: as above
SPHK1 = SPHK1 (UniProt Q9NYA1); assay: as above
SRC = SRC (UniProt P12931); assay: as above
STK24 = STK24 (UniProt Q9Y6E0); assay: as above
STK38 = STK38 (UniProt Q15208); assay: as above
SYK = SYK (UniProt P43405); assay: as above
TEC = TEC (UniProt P42680); assay: as above
TYK2 = TYK2 (UniProt P29597); assay: as above
ULK3 = ULK3 (UniProt Q6PHR2); assay: as above
YES1 = YES1 (UniProt P07947); assay: as above
ZAK = ZAK (UniProt Q9NYL2); assay: as above
ZAP70 = ZAP70 (UniProt P43403); assay: as above
CDK4 = CDK4 (UniProt P11802); assay: number of time points (of 4; 2 h point missing) at which kinase-Nluc abundance scored as decreased, DMSO-normalised (count); higher = more persistent destabilization
CDK7 = CDK7 (UniProt P50613); assay: as above

| Structure (SMILES) | kinase-Nluc reporter destabilization hit call (RET; 10 µM) | kinase-Nluc reporter destabilization hit call ([1]; 10 µM) | kinase-Nluc reporter destabilization hit call (RIOK1; 10 µM) | kinase-Nluc reporter destabilization hit call (RIPK1; 10 µM) | kinase-Nluc reporter destabilization hit call (RIPK2; 10 µM) | kinase-Nluc reporter destabilization hit call (ROR2; 10 µM) | kinase-Nluc reporter destabilization hit call (RPS6KA1; 10 µM) | kinase-Nluc reporter destabilization hit call (SPHK1; 10 µM) | kinase-Nluc reporter destabilization hit call (SRC; 10 µM) | kinase-Nluc reporter destabilization hit call (STK24; 10 µM) | kinase-Nluc reporter destabilization hit call (STK38; 10 µM) | kinase-Nluc reporter destabilization hit call (SYK; 10 µM) | kinase-Nluc reporter destabilization hit call (TEC; 10 µM) | kinase-Nluc reporter destabilization hit call (TYK2; 10 µM) | kinase-Nluc reporter destabilization hit call (ULK3; 10 µM) | kinase-Nluc reporter destabilization hit call (YES1; 10 µM) | kinase-Nluc reporter destabilization hit call (ZAK; 10 µM) | kinase-Nluc reporter destabilization hit call (ZAP70; 10 µM) | number of time points (CDK4; 10 µM) | number of time points (CDK7; 10 µM) | kinase-Nluc reporter destabilization hit call (RET; 2 µM) | kinase-Nluc reporter destabilization hit call ([1]; 2 µM) | kinase-Nluc reporter destabilization hit call (RIOK1; 2 µM) | kinase-Nluc reporter destabilization hit call (RIPK1; 2 µM) | kinase-Nluc reporter destabilization hit call (RIPK2; 2 µM) | kinase-Nluc reporter destabilization hit call (ROR2; 2 µM) | kinase-Nluc reporter destabilization hit call (RPS6KA1; 2 µM) | kinase-Nluc reporter destabilization hit call (SPHK1; 2 µM) | kinase-Nluc reporter destabilization hit call (SRC; 2 µM) | kinase-Nluc reporter destabilization hit call (STK24; 2 µM) | kinase-Nluc reporter destabilization hit call (STK38; 2 µM) | kinase-Nluc reporter destabilization hit call (SYK; 2 µM) | kinase-Nluc reporter destabilization hit call (TEC; 2 µM) | kinase-Nluc reporter destabilization hit call (TYK2; 2 µM) | kinase-Nluc reporter destabilization hit call (ULK3; 2 µM) | kinase-Nluc reporter destabilization hit call (YES1; 2 µM) | kinase-Nluc reporter destabilization hit call (ZAK; 2 µM) | kinase-Nluc reporter destabilization hit call (ZAP70; 2 µM) | number of time points (CDK4; 2 µM) | number of time points (CDK7; 2 µM) |
| --- | --- | --- | --- | --- | --- | --- | --- | --- | --- | --- | --- | --- | --- | --- | --- | --- | --- | --- | --- | --- | --- | --- | --- | --- | --- | --- | --- | --- | --- | --- | --- | --- | --- | --- | --- | --- | --- | --- | --- | --- |
| O=C1Nc2ccccc2/C1=C/c1ccccn1 [(E/Z)-GSK-3β inhibitor 1] | inactive: 0 | inactive: 0 | inactive: 0 | inactive: 0 | inactive: 0 | inactive: 0 | inactive: 0 | inactive: 0 | inactive: 0 | inactive: 0 | inactive: 0 | inactive: 0 | inactive: 0 | inactive: 0 | inactive: 0 | inactive: 0 | inactive: 0 | inactive: 0 | 0 | 0 |  |  |  |  |  |  |  |  |  |  |  |  |  |  |  |  |  |  |  |  |
| Nc1cncc(-c2cn3ccnc3c(Nc3ccc(N4CCN(C5COC5)CC4)cc3)n2)n1 [Lanraplenib (succinate)] | inactive: 0 | inactive: 0 | inactive: 0 | inactive: 0 | inactive: 0 | inactive: 0 | inactive: 0 | inactive: 0 | inactive: 0 | inactive: 0 | inactive: 0 | inactive: 0 | inactive: 0 | inactive: 0 | inactive: 0 | inactive: 0 | inactive: 0 | inactive: 0 | 0 | 0 |  |  |  |  |  |  |  |  |  |  |  |  |  |  |  |  |  |  |  |  |
| CCc1nc(C(N)=O)c(Nc2ccc(N3CCC(N4CCN(C)CC4)CC3)c(OC)c2)nc1NC1CCOCC1 [Gilteritinib hemifumarate] |  |  |  |  |  |  |  |  |  |  |  |  |  |  |  |  |  |  |  |  | inactive: 0 | inactive: 0 | inactive: 0 | inactive: 0 | inactive: 0 | inactive: 0 | inactive: 0 | inactive: 0 | inactive: 0 | inactive: 0 | inactive: 0 | inactive: 0 | inactive: 0 | inactive: 0 | inactive: 0 | inactive: 0 | inactive: 0 | inactive: 0 | 0 | 0 |
| CC(C)NC[C@@H](C(=O)N1CCN(c2ncnc3c2[C@H](C)C[C@H]3O)CC1)c1ccc(Cl)cc1 [Ipatasertib (dihydrochloride)] | inactive: 0 | inactive: 0 | inactive: 0 | inactive: 0 | inactive: 0 | inactive: 0 | inactive: 0 | inactive: 0 | inactive: 0 | inactive: 0 | inactive: 0 | inactive: 0 | inactive: 0 | inactive: 0 | inactive: 0 | inactive: 0 | inactive: 0 | inactive: 0 | 0 | 0 |  |  |  |  |  |  |  |  |  |  |  |  |  |  |  |  |  |  |  |  |
